Laboratory results reported in PubChem BioAssay AID248 (DTP/NCI, 2004).
The list does not hold the whole screen: it is rich in T/C values a quarter to a half above the control, in often repeated tests (any T/C) and in doses without a T/C. Further doses and runs are listed elsewhere. T/C: endpoint of the treated group in % of that of the vehicle group. Some entries give survivors of the animals treated and no T/C: the source holds a T/C of zero for them, seemingly a mark for toxic or unscored doses. Some survivor counts are full or nearly so, which does not show that the dose was tolerated: survival well below the control is almost never listed, so the zero probably covers shortened survival too. Survivors were counted at the toxicity check, usually on the fifth day, unless a day is given; later deaths do not show. Schedules are NCI's codes, taken here to give the interval after Q, in days (D) or hours (H), and the number of doses after X. Some schedule codes hold Z or #, which are not explained here. Some entries hold several experiments; the values are given in rising order. Where survival is the endpoint, this PubChem deposit counts one and a half times the control or more as active, and values a quarter to a half above the control carry no call in these data; other NCI protocols may use other cut-offs. Some T/C values are followed by the survivors on the day toxicity was checked, most often the fifth; where none is given, no animal had died by that day.

Tested on: L1210 leukemia ip in BDF1 mice, survival T/C
Assay: NCI In Vivo Anticancer Drug Screen. Data for tumor model L1210 Leukemia (intraperitoneal) in B6D2F1 (BDF1) mice
Conditions: higher T/C = longer survival
[1] = T/C endpoint: mean survival time, dose: 400.0 mg/kg/injection, schedule: Q04DX003 (ip), vehicle: saline with Tween-80
[2] = T/C endpoint: mean survival time, dose: 400.0 mg/kg/injection, schedule: Q04DX002 (ip), vehicle: Klucel (hydroxypropylcellulose) (HPC)
[3] = T/C endpoint: mean survival time, dose: 200.0 mg/kg/injection, schedule: Q04DX003 (ip), vehicle: Klucel (hydroxypropylcellulose) (HPC)
[4] = T/C endpoint: mean survival time, dose: 400.0 mg/kg/injection, schedule: Q04DX003 (ip), vehicle: Klucel (hydroxypropylcellulose) (HPC)
[5] = T/C endpoint: mean survival time, dose: 200.0 mg/kg/injection, schedule: Q01DX001 (ip), vehicle: saline
[6] = T/C endpoint: mean survival time, dose: 300.0 mg/kg/injection, schedule: Q01DX001 (ip), vehicle: saline
[7] = T/C endpoint: mean survival time, dose: 100.0 mg/kg/injection, schedule: Q04DX003 (ip), vehicle: Klucel (hydroxypropylcellulose) (HPC)
[8] = T/C endpoint: mean survival time, dose: 400.0 mg/kg/injection, schedule: Q01DX009 (ip), vehicle: Klucel (hydroxypropylcellulose) (HPC)
[9] = T/C endpoint: mean survival time, dose: 400.0 mg/kg/injection, schedule: Q01DX001 (ip), vehicle: saline
[10] = T/C endpoint: mean survival time, dose: 400.0 mg/kg/injection, schedule: Q01DX009 (ip), vehicle: saline with Tween-80

**Q.** What does the source list for Cc1cc(NCCCCCCNc2cc(C)nc3ccc(N)cc23)c2cc(N)ccc2n1?
**A.** T/C (T/C endpoint: mean survival time, dose: 9.3 mg/kg/injection, schedule: Q01DX009 (ip), vehicle: saline with Tween-80): 135 % of control; T/C (T/C endpoint: mean survival time, dose: 18.0 mg/kg/injection, schedule: Q01DX009 (ip), vehicle: saline): 131 % of control; T/C (T/C endpoint: mean survival time, dose: 24.75 mg/kg/injection, schedule: Q01DX009 (ip), vehicle: saline): 127 % of control; T/C (T/C endpoint: mean survival time, dose: 37.5 mg/kg/injection, schedule: Q01DX009 (ip), vehicle: acetone): 134 % of control [5 of 6 alive]; survivor count (T/C endpoint: mean survival time, dose: 150.0 mg/kg/injection, schedule: Q01DX009 (ip), vehicle: saline): 4 of 6; T/C (T/C endpoint: mean survival time, dose: 266.0 mg/kg/injection, schedule: Q04DX003 (ip), vehicle: Klucel (hydroxypropylcellulose) (HPC)): 147 % of control [4 of 6 alive]; survivor count (T/C endpoint: mean survival time, dose: 300.0 mg/kg/injection, schedule: Q01DX009 (ip), vehicle: acetone): 5 of 6; survivor count (T/C endpoint: mean survival time, dose: 300.0 mg/kg/injection, schedule: Q01DX009 (ip), vehicle: saline): 4 of 6; survivor count [1]: 6 of 6; survivor count (T/C endpoint: median survival time, dose: 2.0 mg/kg/injection, schedule: Q01DX001 (ip), vehicle: citric acid): 5 of 8; survivor count (T/C endpoint: median survival time, dose: 4.0 mg/kg/injection, schedule: Q01DX001 (ip), vehicle: citric acid): 5 of 8; survivor count (T/C endpoint: median survival time, dose: 8.0 mg/kg/injection, schedule: Q01DX001 (ip), vehicle: citric acid): 3 of 8; survivor count (T/C endpoint: median survival time, dose: 16.0 mg/kg/injection, schedule: Q01DX001 (ip), vehicle: citric acid): 5 of 8; survivor count (T/C endpoint: median survival time, dose: 32.0 mg/kg/injection, schedule: Q01DX001 (ip), vehicle: citric acid): 0 of 8; survivor count (T/C endpoint: median survival time, dose: 64.0 mg/kg/injection, schedule: Q01DX001 (ip), vehicle: citric acid): 0 of 8; survivor count (T/C endpoint: median survival time, dose: 64.0 mg/kg/injection, schedule: Q01DX001 (ip), vehicle: lactic acid): 2 of 8; survivor count (T/C endpoint: median survival time, dose: 128.0 mg/kg/injection, schedule: Q01DX001 (ip), vehicle: lactic acid): 0 of 8; survivor count (T/C endpoint: median survival time, dose: 512.0 mg/kg/injection, schedule: Q01DX001 (oral), vehicle: citric acid): 3 of 8; survivor count (T/C endpoint: median survival time, dose: 512.0 mg/kg/injection, schedule: Q01DX001 (oral), vehicle: lactic acid): 5 of 8

**Q.** For CCCCCCCN1CCC(C(=O)CC)(c2cccc(O)c2)CC1, which survivor count (T/C endpoint: mean survival time, dose: 100.0 mg/kg/injection, schedule: Q01DX009 (ip), vehicle: Klucel (hydroxypropylcellulose) (HPC)) is on record?
**A.** Its survivor count is 0 of 3.

**Q.** What about the survivor count (T/C endpoint: mean survival time, dose: 200.0 mg/kg/injection, schedule: Q01DX009 (ip), vehicle: Klucel (hydroxypropylcellulose) (HPC)) of the same molecule?
**A.** Its survivor count is 0 of 3.

**Q.** And the survivor count (T/C endpoint: mean survival time, dose: 200.0 mg/kg/injection, schedule: Q04DX002 (ip), vehicle: Klucel (hydroxypropylcellulose) (HPC))?
**A.** The survivor count was 0 of 3.

**Q.** And the survivor count [2]?
**A.** The survivor count was 0 of 3.

**Q.** With O=C(O)CSC(C(=O)O)c1ccccc1 (stereo not drawn) as the molecule, how does the survivor count [1] read?
**A.** Its survivor count is 2 of 6.

**Q.** How did the survivor count [3] turn out when CCCCCCCCCCSCCSCCSCCCCCCCCCC was run?
**A.** Its survivor count is 6 of 6.

**Q.** And the survivor count [4]?
**A.** Its survivor count is 6 of 6.

**Q.** How did the T/C (T/C endpoint: mean survival time, dose: 89.0 mg/kg/injection, schedule: Q01DX001 (ip), vehicle: saline) turn out when CSc1ncnc2c1c(C#N)cn2C1OC(CO)C(O)C1O (stereo not drawn) was run?
**A.** The T/C was 136 % of control.

**Q.** And the T/C (T/C endpoint: mean survival time, dose: 133.0 mg/kg/injection, schedule: Q01DX001 (ip), vehicle: saline)?
**A.** The T/C was 140 % of control [5 of 6 alive].

**Q.** What about the survivor count [5] of the same molecule?
**A.** Its survivor count is 1 of 6.

**Q.** What about the survivor count [6] of the same molecule?
**A.** The survivor count was 0 of 6.

**Q.** With NNC(=O)c1ccc(Cl)cc1Cl as the molecule, how does the survivor count (T/C endpoint: mean survival time, dose: 50.0 mg/kg/injection, schedule: Q01DX009 (ip), vehicle: Klucel (hydroxypropylcellulose) (HPC)) read?
**A.** Its survivor count is 0 of 6.

**Q.** And the survivor count [7]?
**A.** Its survivor count is 1 of 6.

**Q.** What about the survivor count [3] of the same molecule?
**A.** The survivor count was 0 of 6.

**Q.** What about the survivor count [4] of the same molecule?
**A.** Its survivor count is 0 of 6.

**Q.** For Cn1c(C[N+](C)(C)C)cc2ccccc21, which survivor count [1] is on record?
**A.** Its survivor count is 0 of 6.

**Q.** O=C1C2CCN(CC2)C1Cc1ccccc1 (stereo not drawn) was tested. Which survivor count (T/C endpoint: mean survival time, dose: 400.0 mg/kg/injection, schedule: Q04DX002 (ip), vehicle: saline) did it give?
**A.** Its survivor count is 0 of 3.

**Q.** CCCCCSP(=O)(SCCCCC)c1ccccc1 was tested. Which survivor count [8] did it give?
**A.** Its survivor count is 0 of 6.

**Q.** For COc1ccc(N(C)C(C)=S)cc1, which survivor count (T/C endpoint: mean survival time, dose: 400.0 mg/kg/injection, schedule: Q04DX003 (ip), vehicle: gum acacia) is on record?
**A.** The survivor count was 5 of 6.

**Q.** COc1ccccc1-n1c(O)c(N=Nc2ccc(Cl)cc2)c(=O)n(-c2ccc(Cl)cc2)c1=S was tested. Which survivor count (T/C endpoint: mean survival time, dose: 400.0 mg/kg/injection, schedule: Q01DX001 (ip), vehicle: Klucel (hydroxypropylcellulose) (HPC)) did it give?
**A.** Its survivor count is 2 of 6.

**Q.** CCC(C)(C(=O)O)C(=O)O was tested. Which survivor count [5] did it give?
**A.** Its survivor count is 1 of 4.

**Q.** And the survivor count [9]?
**A.** The survivor count was 0 of 4.

**Q.** For CSc1sc2ccc(S(=O)(=O)O)cc2[n+]1C, which survivor count [1] is on record?
**A.** Its survivor count is 5 of 6.

**Q.** With CCNc1ccc([N+](=O)[O-])cn1 as the molecule, how does the survivor count [8] read?
**A.** Its survivor count is 5 of 6.

**Q.** For OC(C[n+]1ccsc1)c1ccccc1 (stereo not drawn), which survivor count [6] is on record?
**A.** Its survivor count is 0 of 6.

**Q.** How did the survivor count (T/C endpoint: mean survival time, dose: 400.0 mg/kg/injection, schedule: Q01DX001 (ip), vehicle: carboxymethylcellulose (CMC)) turn out when CC(CC(=O)c1ccc(F)cc1)N1CCCCC1 (stereo not drawn) was run?
**A.** The survivor count was 1 of 4.

**Q.** For O=C(CCC(=O)c1ccccc1)OCc1ccccc1, which survivor count [2] is on record?
**A.** The survivor count was 3 of 3.

**Q.** How did the T/C [10] turn out when CN(C)N=Nc1ccc(Cl)cc1C(N)=O was run?
**A.** Its T/C is 146 % of control [5 of 6 alive].

**Q.** Which results are given for CC(C)(C)CC(C)(C)NCC#N?
**A.** survivor count (T/C endpoint: mean survival time, dose: 50.0 mg/kg/injection, schedule: Q04DX003 (ip), vehicle: Klucel (hydroxypropylcellulose) (HPC)): 2 of 6; survivor count [7]: 0 of 6; survivor count [3]: 0 of 6; survivor count [4]: 1 of 6

**Q.** For CSC(=O)N=Nc1c(O)n(C)c(=O)n(C)c1=O, which survivor count (T/C endpoint: mean survival time, dose: 100.0 mg/kg/injection, schedule: Q01DX009 (ip), vehicle: saline with Tween-80) is on record?
**A.** The survivor count was 3 of 3.

**Q.** And the survivor count (T/C endpoint: mean survival time, dose: 200.0 mg/kg/injection, schedule: Q01DX009 (ip), vehicle: saline with Tween-80)?
**A.** The survivor count was 0 of 3.

**Q.** With CCN(CC)C(C)=O as the molecule, how does the survivor count (T/C endpoint: mean survival time, dose: 100.0 mg/kg/injection, schedule: Q01DX001 (ip), vehicle: saline) read?
**A.** The survivor count was 4 of 4.

**Q.** Which survivor count (T/C endpoint: mean survival time, dose: 50.0 mg/kg/injection, schedule: Q01DX Z (ip), vehicle: carboxymethylcellulose (CMC)) does the source give for COc1cc(-c2ccc(Nc3ccccc3C(=O)O)c(OC)c2)ccc1N here?
**A.** The survivor count was 3 of 6 and 4 of 6.

**Q.** And the survivor count (T/C endpoint: mean survival time, dose: 75.0 mg/kg/injection, schedule: Q01DX Z (ip), vehicle: carboxymethylcellulose (CMC))?
**A.** Its survivor count is 1 of 6.

**Q.** And the survivor count [9]?
**A.** Its survivor count is 1 of 6.

**Q.** COC(=O)c1ccc(OC(=O)Nc2cccc(Cl)c2C)cc1 was tested. Which survivor count [10] did it give?
**A.** The survivor count was 0 of 3 and 1 of 6.
